Assay [1] concerns the target T1, LpoA^N, N-terminal domain of LpoA (residues G28-T256) (E. coli) (UniProt P45464).
T1 sequence: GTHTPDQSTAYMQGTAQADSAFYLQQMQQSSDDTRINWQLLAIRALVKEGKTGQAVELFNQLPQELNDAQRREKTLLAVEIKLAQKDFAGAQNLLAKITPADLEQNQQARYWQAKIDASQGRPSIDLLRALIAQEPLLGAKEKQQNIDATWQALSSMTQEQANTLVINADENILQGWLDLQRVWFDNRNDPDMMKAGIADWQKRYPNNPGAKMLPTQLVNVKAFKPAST
Put plainly: MST; one protein fluorescently labelled (NT-647 dye) at a fixed concentration, two-fold serial dilution of unlabelled ligand over 16 samples; 25 mM HEPES/NaOH, 150 mM NaCl, 0.05% Triton X-100, pH 7.5; Monolith NT.115; apparent KD; both purified.

Sequences of proteins named here, by UniProt entry; tags and fusion partners are left off. A change or cut given only in a name is not applied to a line headed by its entry.
UniProt P24228: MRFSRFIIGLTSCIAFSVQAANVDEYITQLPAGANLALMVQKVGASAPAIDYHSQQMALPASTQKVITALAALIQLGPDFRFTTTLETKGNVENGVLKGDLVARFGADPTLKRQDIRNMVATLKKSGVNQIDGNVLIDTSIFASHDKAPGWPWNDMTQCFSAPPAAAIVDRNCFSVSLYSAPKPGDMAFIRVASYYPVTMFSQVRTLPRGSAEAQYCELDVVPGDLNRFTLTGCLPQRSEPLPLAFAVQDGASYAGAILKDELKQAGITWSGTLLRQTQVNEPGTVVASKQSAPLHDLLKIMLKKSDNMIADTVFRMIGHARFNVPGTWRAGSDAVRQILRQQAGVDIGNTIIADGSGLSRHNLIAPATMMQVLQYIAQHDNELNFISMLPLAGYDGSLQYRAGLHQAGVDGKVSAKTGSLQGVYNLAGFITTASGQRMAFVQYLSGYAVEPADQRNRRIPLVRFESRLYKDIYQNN

Assay [2] addresses T2, NlpI, soluble, as used in microscale thermophoresis (E. coli) (UniProt P0AFB1).
T2 sequence: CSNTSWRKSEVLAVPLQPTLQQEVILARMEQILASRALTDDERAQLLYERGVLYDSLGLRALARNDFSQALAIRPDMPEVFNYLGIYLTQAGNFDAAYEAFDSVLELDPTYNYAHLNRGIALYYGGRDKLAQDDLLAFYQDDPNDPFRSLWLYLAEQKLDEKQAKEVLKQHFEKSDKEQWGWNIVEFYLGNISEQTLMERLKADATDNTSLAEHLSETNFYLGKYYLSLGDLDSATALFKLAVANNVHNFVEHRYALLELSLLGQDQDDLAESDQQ
The description is as above.

The target in assay [3] is T3, PBP1A, purified (full length His-PBP1A) (E. coli) (UniProt P02918).
T3 sequence: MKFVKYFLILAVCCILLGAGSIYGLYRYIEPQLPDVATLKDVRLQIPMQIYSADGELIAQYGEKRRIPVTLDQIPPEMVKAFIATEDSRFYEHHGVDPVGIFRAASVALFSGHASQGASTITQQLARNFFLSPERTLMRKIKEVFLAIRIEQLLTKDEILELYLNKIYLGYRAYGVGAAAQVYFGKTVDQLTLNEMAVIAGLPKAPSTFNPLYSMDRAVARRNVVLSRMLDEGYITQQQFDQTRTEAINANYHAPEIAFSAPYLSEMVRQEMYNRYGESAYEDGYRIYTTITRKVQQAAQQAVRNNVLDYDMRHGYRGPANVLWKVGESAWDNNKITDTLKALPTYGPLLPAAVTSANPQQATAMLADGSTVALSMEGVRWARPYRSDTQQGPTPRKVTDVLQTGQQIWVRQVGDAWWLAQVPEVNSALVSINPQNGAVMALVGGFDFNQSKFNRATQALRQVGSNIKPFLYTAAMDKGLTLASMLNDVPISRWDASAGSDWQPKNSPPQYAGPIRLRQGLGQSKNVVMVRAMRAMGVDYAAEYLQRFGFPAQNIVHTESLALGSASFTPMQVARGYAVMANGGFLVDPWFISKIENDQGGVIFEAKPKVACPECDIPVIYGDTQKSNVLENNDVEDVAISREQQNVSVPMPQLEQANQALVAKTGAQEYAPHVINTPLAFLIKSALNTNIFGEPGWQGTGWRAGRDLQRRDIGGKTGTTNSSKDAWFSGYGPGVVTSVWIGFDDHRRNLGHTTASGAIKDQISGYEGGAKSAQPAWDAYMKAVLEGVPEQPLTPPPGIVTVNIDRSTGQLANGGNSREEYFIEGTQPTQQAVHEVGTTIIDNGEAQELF
Described as above.

The target of assay [4] is T4, LpoA^C, C-terminal domain of LpoA (residues N257-S678) (E. coli) (UniProt P45464).
T4 sequence: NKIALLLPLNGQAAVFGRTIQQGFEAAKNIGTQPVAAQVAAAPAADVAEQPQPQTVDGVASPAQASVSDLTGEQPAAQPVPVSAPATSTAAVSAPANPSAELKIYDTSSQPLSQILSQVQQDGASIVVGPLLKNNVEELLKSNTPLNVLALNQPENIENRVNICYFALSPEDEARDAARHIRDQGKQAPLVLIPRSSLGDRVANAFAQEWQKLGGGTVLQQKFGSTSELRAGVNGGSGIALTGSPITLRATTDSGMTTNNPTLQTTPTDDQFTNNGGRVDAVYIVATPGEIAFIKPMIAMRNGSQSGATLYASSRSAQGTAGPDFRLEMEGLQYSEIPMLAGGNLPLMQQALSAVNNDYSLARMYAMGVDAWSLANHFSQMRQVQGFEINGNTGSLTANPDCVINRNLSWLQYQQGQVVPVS
Described as above.

Assay [5] deals with T5, EnvC, soluble version without the N-terminal 34 amino acid signal peptide (E. coli) (UniProt P37690).
T5 sequence: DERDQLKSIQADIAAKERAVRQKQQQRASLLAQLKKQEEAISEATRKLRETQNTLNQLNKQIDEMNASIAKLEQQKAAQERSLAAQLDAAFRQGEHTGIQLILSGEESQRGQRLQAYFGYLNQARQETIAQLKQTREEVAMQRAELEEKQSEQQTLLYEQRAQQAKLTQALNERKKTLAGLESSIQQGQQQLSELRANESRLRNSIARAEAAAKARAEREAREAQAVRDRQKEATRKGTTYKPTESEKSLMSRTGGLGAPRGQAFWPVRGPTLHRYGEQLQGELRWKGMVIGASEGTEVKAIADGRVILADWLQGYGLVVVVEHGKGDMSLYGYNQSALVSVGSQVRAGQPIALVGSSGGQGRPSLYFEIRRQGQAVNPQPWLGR
The assay is described as above.

The target of assay [6] is PBP4ΔD3 (PBP4 lacking domain 3), His-tagged (E. coli) (UniProt P24228). Put plainly: pull-down; Ni-NTA beads; equimolar (1–2 μM) His-tagged and untagged proteins; 10 mM HEPES/NaOH, 10 mM MgCl2, 150 mM NaCl, 0.05% Triton X-100, pH 7.5, 4°C; washes with 30 mM imidazole; SDS-PAGE; His-NlpI also with PBP4 and EnvC together; both purified.

No constants are given. Whether binding was seen depends on the method and setting. For some of these results: Binding calls can cover weak binding; strength is not graded here. For some of these results: Where a sequence is shown, tags or fusion partners need not be part of it.

With “PBP4ΔD3 (PBP4 lacking domain 3), His-tagged (from UniProt P24228) (enzyme)”, the binding result is reported as “binds” in assay [1]; “no binding” in assay [2]; “binds” in assay [3]; “binds” in assay [4]; “no binding (tested: KD > 5900±2823 nM)” in assay [5].
For “LytM domain of EnvC (EnvC-LytM) (E. coli) (domain or fragment)”, the binding result in assay [2] is recorded as “binds”.

B1: untagged NlpI (soluble) (protein, UniProt P0AFB1 19-294)
chain: T2 sequence
In the case of B1, the binding entry in assay [6] is on record as “no binding (tested: 1–2 μM)”.

(Values after publication PMC9166362, “Early midcell localization of Escherichia coli PBP4 supports the function of peptidoglycan amidases” (PLoS Genetics, 2022).)
